# Source: patent EP4687981A2
# Results are given in words; binding and its absence hold for the method and conditions named. Some binding calls cover weakened binding; strength is not graded here. Sequences can lack the tags named with a protein.
# T1: full length human CDH11 C-terminally tagged with GFP, expressed on Expi293F cells (human) (UniProt P55287)
# T1 sequence (looked up): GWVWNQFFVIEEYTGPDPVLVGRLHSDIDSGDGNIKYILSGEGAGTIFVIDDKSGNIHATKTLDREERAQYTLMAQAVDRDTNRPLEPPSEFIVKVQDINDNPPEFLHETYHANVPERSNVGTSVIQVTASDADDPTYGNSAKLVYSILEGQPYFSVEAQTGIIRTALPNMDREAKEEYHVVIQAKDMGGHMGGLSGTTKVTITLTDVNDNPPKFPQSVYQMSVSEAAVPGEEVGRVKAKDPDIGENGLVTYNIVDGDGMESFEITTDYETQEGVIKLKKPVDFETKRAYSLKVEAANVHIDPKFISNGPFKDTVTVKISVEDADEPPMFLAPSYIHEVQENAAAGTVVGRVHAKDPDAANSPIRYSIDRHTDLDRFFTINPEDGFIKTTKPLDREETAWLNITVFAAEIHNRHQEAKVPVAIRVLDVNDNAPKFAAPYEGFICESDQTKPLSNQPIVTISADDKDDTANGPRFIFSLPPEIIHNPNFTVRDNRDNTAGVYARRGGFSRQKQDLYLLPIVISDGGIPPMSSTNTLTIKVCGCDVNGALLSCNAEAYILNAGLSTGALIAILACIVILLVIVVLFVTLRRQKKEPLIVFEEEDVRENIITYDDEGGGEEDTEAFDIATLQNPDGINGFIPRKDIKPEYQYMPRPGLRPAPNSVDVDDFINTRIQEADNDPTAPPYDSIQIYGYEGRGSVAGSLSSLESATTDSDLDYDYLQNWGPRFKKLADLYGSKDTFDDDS
# B1: anti-CDH11 antibody 1A1 (antibody, V domains shown)
# VH: EVQLVESGGGLVQPGGSLRLSCAASGFTFSTFWMSWVRQGPGKGLEWVANIKEDGNEKYYVDSVKGRFTVSRDSDKNSLYLEMNSLRVEDTGLYYCARGSWYGNFQHWGQGTLVTVSS
# VL: DIQMTQSPSSLSASVGDRITITCQASQDISNFLNWYQQKPGKAPKLLIYDASNLETGVPSRFSGTGSGTDFTFTISSLQSVDIATYYCQQYDNLPPTFGGGTRVEIK
# Target: T1, full length human CDH11 C-terminally tagged with GFP, expressed on Expi293F cells (human)
# Assay: flow cytometry on transfected Expi293F cells (Fig 14B: 1A1, 2A1, 2D2, 6D5)
binder,measurement,value
B1,binding,binds
